# The campaign covered roughly 52,000 sequences. About 210 (0.4%) were called active.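 Rule for the calls: active = gene whose silencing raises cell survival under the drug, median off-target-corrected z-score across its silencing RNAs 2 or more; inactive = the rest.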 Some of the results follow.
# Experiment: Resistance to Poly (ADP-Ribose) Polymerase inhibitor: Gene Identification via Genome-wide siRNA Screen
# Conditions: mouse BRCA2 R2336H ES cells, olaparib, CellTiter-Glo viability; hits give high values
# Procedure, shortened: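 Genome-wide siRNA screen (3 siRNAs/gene, 20 nM) in mouse ES cells carrying hypomorphic BRCA2 R2336H; olaparib 500 nM added 48 h post-transfection, CellTiter-Glo viability 72 h later. Normalized to plate-median negative control; MAD z-scores, gene median, seed-adjusted.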
row,Sequence,z-score
1,GGACAUGCAAAGAUACCGGTT against Ogfr,inactive: -0.804
2,GGUUCUGAUUUCAUUUGAUTT against Pkia,inactive: -0.7
3,CCUGGUGGAUUGUUGGUGUTT against Guca1b,inactive: -0.293
4,GGCCUUGAAUGAGCAUCAUTT against Hrb2,inactive: -1.57
5,GCUUAACCGUUUUUUCAAATT against Tgif,inactive: 0.555
6,GCAUCACUGGAAAUCUUACTT against Olfr807,inactive: 0.0483
7,CCAACAGUAGAUAAAAAGCTT against Sesn1,inactive: 0.289
8,GCAUUCAUUUGAGCUCGGUTT against 2310044H10Rik,inactive: 0.245
9,GGCUUUACAUUUUCAUUGUTT against Olfr993,inactive: -0.337
10,GCAAGAAAUGGACAAUUACTT against Gkap1,inactive: -0.653
11,GUUAGAUGCCCUCAAGUUCTT against 1810073E21Rik,inactive: 0.297
12,GCCUCAUUGAAAGGAUCCATT against GnT-IX,inactive: -0.888
13,GGAUGUACAAUAAUUGGGATT against A430089I19Rik,inactive: 0.461
14,GCUUUACCUCCUAUUAAUATT against Rgs9bp,inactive: 0.402
15,GGUAUGUAACGGUAUUUAATT against Gja1,inactive: 1.59
16,GGCUGUUUGUGGUAUAGGUTT against Lrrc3,inactive: 1.52
17,GGGAAUCGGCCUGAAGAAATT against Arl6ip5,inactive: -0.707
18,GCUUCAAUAACUGCGCAAGTT against 9430065N20Rik,inactive: -0.203
19,GGAUACCAUAGCAGAUCCATT against B430104H02Rik,inactive: 0.812
20,GGAUUCCAAGCUUUCGAAATT against Golph4,inactive: 0.328
21,GGUUCUCCAAGGAAAGAGGTT against 2310002L09Rik,inactive: -0.864
22,GCAGUUCCCAUAGUUUUCUTT against Il1r2,inactive: 2.37
23,GGUGCUUUAAAGAAAAUGCTT against 5730528L13Rik,inactive: 0.328
24,CCCAAAUCGUAGCUGAUGATT against Cadps,inactive: 1.29
25,GGUACUGGAUCAAAGAAACTT against RP23-219P13.3,inactive: 0.000352
26,GCUACAAUGUAGGUCUCAGTT against Rsbn,inactive: -0.36
27,GGGCUAUGUUCGAAGUAAATT against Kbtbd3,inactive: -0.485
28,GCGGAUUCACUUCUACUACTT against Asah3,inactive: -0.526

# Some of the entries above, set out differently.
row	Sequence	z-score
24	CCCAAAUCGUAGCUGAUGATT against Cadps	inactive: 1.29
25	GGUACUGGAUCAAAGAAACTT against RP23-219P13.3	inactive: 0.000352

# Source: PubChem BioAssay AID1347423 (Functional Genomics Laboratory (NCATS/FGL), 2020)
